Out of some 390,000 compounds screened, about 910 (0.23%) were called active. Inconclusive means that the source gave no clear call. Such entries were picked first, then a sample of the others. The call rests on the fitted dose curve; in most records, active means well fitted inhibition curve with a large enough effect; inconclusive means small, poorly fitted or top-dose-only effect; inactive means no such curve, though single readings can be large or run the other way. Potencies beside an inconclusive call are fits to weak or partial responses and may not hold up.
molecular target: Ubiquitin carboxyl-terminal hydrolase 1 (Homo sapiens) (UniProt O94782); test: Inhibitors of USP1/UAF1: Primary Screen; conditions: recombinant USP1/UAF1, Ub-Rhodamine cleavage fluorescence; activity change, negative = inhibition: at 57.1 µM (top of the series); further: nearly all actives have a fitted effect of over 60% in size
Summary of the method: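 USP1/UAF1 complex (1 nM) preincubated 15 min at room temperature with compound, then Ub-Rho substrate (150 nM final) added. Kinetic fluorescence at 480/540 nm over 6 reads at 60 s intervals; 50 mM HEPES pH 7.8, 0.5 mM EDTA, 0.1 mg/ml BSA, 1 mM TCEP, 0.01% Tween-20.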
On the % scale 0 is the no-effect control and ±100 the full control effect; potency means the concentration at half of the fitted maximal effect.

Amino acid sequences for entries named in this document (tags omitted). A change or cut given only in a name is not applied to a line headed by its entry.
UniProt O94782: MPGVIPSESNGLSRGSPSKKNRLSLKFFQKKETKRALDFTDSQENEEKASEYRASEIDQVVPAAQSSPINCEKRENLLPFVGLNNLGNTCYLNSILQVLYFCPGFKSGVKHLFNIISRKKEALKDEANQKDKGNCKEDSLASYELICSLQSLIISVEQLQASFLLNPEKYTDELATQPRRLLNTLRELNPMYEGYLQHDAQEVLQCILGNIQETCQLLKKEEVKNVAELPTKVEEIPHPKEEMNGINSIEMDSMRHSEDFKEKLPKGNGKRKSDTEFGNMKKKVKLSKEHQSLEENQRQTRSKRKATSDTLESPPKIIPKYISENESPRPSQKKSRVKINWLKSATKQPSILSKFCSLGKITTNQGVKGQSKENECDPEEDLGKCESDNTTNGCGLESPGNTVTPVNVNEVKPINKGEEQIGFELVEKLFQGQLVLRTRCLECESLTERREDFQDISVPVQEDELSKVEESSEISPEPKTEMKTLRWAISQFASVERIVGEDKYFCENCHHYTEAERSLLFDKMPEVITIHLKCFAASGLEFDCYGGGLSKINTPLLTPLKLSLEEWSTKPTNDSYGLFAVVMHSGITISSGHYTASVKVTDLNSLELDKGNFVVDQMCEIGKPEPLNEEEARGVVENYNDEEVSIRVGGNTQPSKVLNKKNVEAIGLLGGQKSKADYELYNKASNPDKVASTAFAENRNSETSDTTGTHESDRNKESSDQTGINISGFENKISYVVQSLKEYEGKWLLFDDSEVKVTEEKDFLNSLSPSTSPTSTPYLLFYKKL

Row | SMILES | activity change, negative = inhibition | Potency
1 | Cc1ccc(NC(=O)CSc2nc3nc(C)c(Cc4ccccc4)c(C)n3n2)cc1 | inactive: -9.78% | 
2 | COC(=O)c1ccccc1NC(=O)CN(c1cc(OC)ccc1OC)S(C)(=O)=O | inactive: -13% | 
3 | CCN(C(=O)COC(=O)/C=C/c1ccc(F)cc1)C1CCCCC1 | inactive: -8.32% | 
4 | S=c1[nH]c(-c2ccc(Cl)cc2)cs1 | inactive: -15.2% | 
5 | COc1ccc(NC(=O)c2sc3nc4n(c(=O)c3c2C)CCC4)c(OC)c1 | inactive: -11.3% | 
6 | O=C(Nc1ccsc1C(=O)O)c1cccc(Oc2ccccc2)c1 |  | inconclusive: 0.708 µM [inhibitor, full curve]
7 | C=C1c2cccc(O)c2C(O)=C2C(=O)[C@]3(O)C(O)=C(C(N)=O)C(=O)[C@@H](N(C)C)[C@@H]3[C@@H](O)[C@H]12 |  | inconclusive: 22.4 µM [inhibitor, partial curve]
8 | Cc1cc(N(CCO)CCO)ccc1C(c1ccc(N(CCO)CCO)cc1C)c1ccccc1Cl | inactive: -16.7% | 
9 | N#CC1=C(N)Oc2n[nH]c(-c3cccs3)c2C1C1C=CCCC1 (centres undefined) | inactive: -3.2% | 
10 | O=C(OCc1ccccc1)C1=NNC2C(=O)N(c3ccc(Br)cc3)C(=O)C12 (centres undefined) |  | inconclusive: 0.355 µM [inhibitor, partial curve, poor fit]
11 | O=[N+]([O-])c1ccc(N(c2ccccc2)c2ccccc2)cc1 | inactive: -21.9% | 
12 | O=C(NCc1ccccn1)C1(C(F)(F)F)C/C(=C\CCO)CCCO1 (centres undefined) | inactive: 1.87% | 
13 | COc1ccc(C2CC(c3ccncc3)=NN2c2ccc(S(N)(=O)=O)cc2)cc1 (centres undefined) |  | inconclusive: 44.7 µM [inhibitor, partial curve, poor fit]
14 | COC(=O)c1c(-c2ccc(OC)cc2)sc2ccc(N3CCOCC3)cc12 |  | inconclusive: 63.1 µM [inhibitor, single point]
15 | COc1ccc(C(C(=O)Nc2ccc(C(C)C)cc2)N(C)C(=O)c2ccc(=O)[nH]c2)cc1 (centres undefined) | inactive: 1.06% | 
16 | Cc1ccc(NC(=O)CN(C)C(=O)C(Sc2ccccc2)c2ccccc2)cc1 (centres undefined) | inactive: -16% | 
17 | CCCCCCCC(=O)N/N=C/c1ccc([N+](=O)[O-])o1 | inactive: -21.1% | 
18 | O=C(/C=C/c1ccc([N+](=O)[O-])s1)N1CCCCC1 | inactive: -17% | 
19 | COc1ccc(OCCSc2nnc(CCNC(=O)c3ccc(Cl)c(Cl)c3)n2C)cc1 | inactive: -15.2% | 
20 | CCC(C)(NC(=O)c1ccccn1)C(=O)NC1CCCC1 (centres undefined) |  | inconclusive: 7.08 µM [inhibitor, single point]
21 | COc1ccc(/C=N/NC(=O)CNC(=O)c2ccc3c(c2)OCCO3)c(C(=O)O)c1OC | inactive: -29.5% | 
22 | O=C(c1ccc([N+](=O)[O-])cc1)n1nc(-c2ccccc2)nc1NCc1ccccc1 | inactive: -20.1% | 
23 | CSc1ccccc1C(=O)Nc1nc2ccccc2[nH]1 | inactive: -5.66% | 
24 | Cn1c(SCC(=O)NCc2ccco2)nnc1-c1ccc(S(=O)(=O)N2CCOCC2)cc1 | inactive: -14.8% | 
25 | CCC(CC)C(=O)N1N=C(c2ccc(NS(C)(=O)=O)cc2)CC1c1ccc(C)cc1 (centres undefined) |  | inconclusive: 44.7 µM [inhibitor, partial curve]

Compounds listed so far containing an NH in an aromatic ring (4):
Row | SMILES | activity change, negative = inhibition | Potency
4 | S=c1[nH]c(-c2ccc(Cl)cc2)cs1 | inactive: -15.2% | 
9 | N#CC1=C(N)Oc2n[nH]c(-c3cccs3)c2C1C1C=CCCC1 (centres undefined) | inactive: -3.2% | 
15 | COc1ccc(C(C(=O)Nc2ccc(C(C)C)cc2)N(C)C(=O)c2ccc(=O)[nH]c2)cc1 (centres undefined) | inactive: 1.06% | 
23 | CSc1ccccc1C(=O)Nc1nc2ccccc2[nH]1 | inactive: -5.66% | 

Following part:

Row | SMILES | activity change, negative = inhibition | Potency
26 | Cc1c(C)c2ccc(OCC(=O)N3CCN(C(=O)C4COc5ccccc5O4)CC3)cc2oc1=O (centres undefined) | inactive: -7.51% | 
27 | Cc1ccccc1Nc1nc(N)c2ccccc2n1 |  | inconclusive: 35.5 µM [inhibitor, partial curve]
28 | CCNC(=S)NNC(=O)c1cccn(Cc2ccc(Cl)cc2Cl)c1=O |  | inconclusive: 11.2 µM [inhibitor, partial curve, poor fit]
29 | O=C(O)C(Cc1c[nH]c2ccccc12)NS(=O)(=O)c1cccc(Cl)c1Cl (centres undefined) | inactive: 0.68% | 
30 | O=[N+]([O-])c1ccc(Sc2cccc[n+]2[O-])c2nonc12 |  | inconclusive: 39.8 µM [inhibitor, partial curve, poor fit]
31 | Cc1nc(Nc2nc3ccccc3o2)nc(C)c1C | inactive: -4.62% | 
32 | O=C(Nc1nc(-c2ccccc2)nc2ccccc12)c1ccc(F)cc1 |  | inconclusive: 31.6 µM [inhibitor, partial curve]
33 | CCN1C(=O)C(C)C=C(C)C=C1C (centres undefined) | inactive: -24.7% | 
34 | CCOC(=O)c1[nH]c2ccccc2c1NC(=O)c1ccc(S(=O)(=O)N(C)C)cc1 |  | inconclusive: 0.708 µM [inhibitor, full curve]
35 | CCOc1ccc(CCNC(=O)CCn2c(=O)c3cccn3c3ccc(F)cc32)cc1OCC | inactive: 11.5% | 
36 | CCOc1ccc(NC(=O)/C(C#N)=C\c2ccc(N3CCCC3)c(C)c2)cc1 |  | active: 22.4 µM
37 | Cc1ncc(CO)c(/C=N/NC(=S)Nc2ccc(Cl)c(Cl)c2)c1O | inactive: -13.4% | 
38 | CC(C)C[C@H](NC(=O)c1nc[nH]c1C(=O)NC(c1ccccc1)c1ccccc1)C(=O)OC(C)(C)C | inactive: -15.1% | 
39 | O=C1CC(Nc2ccc(N3CCOCC3)cc2)C(=O)N1c1ccccc1 (centres undefined) | inactive: -14.9% | 
40 | CCc1ccc(NC(=O)C2(c3ccccc3)CC2(Cl)Cl)cc1 (centres undefined) | inactive: -12.4% | 
41 | Cc1cc(C)n2nc(CNC(=O)c3cccc(N(C)C)c3)nc2n1 | inactive: -15.7% | 
42 | Cc1ccc(S(=O)(=O)N2[C@@H](c3ccc(F)cc3)C(C(=O)O)=CC[C@H]2c2ccc(C(C)C)cc2)cc1 |  | inconclusive: 39.8 µM [inhibitor, single point]
43 | COCCCNC(=O)C1CCN(Cc2cc3ccccc3n2Cc2cccc(Cl)c2)CC1 | inactive: -31.8% | 
44 | O=C(Nc1cc(S(=O)(=O)Nc2ccc(Cl)cc2)ccc1N1CCCCC1)c1ccc(F)cc1 |  | inconclusive: 4.47 µM [inhibitor, full curve, poor fit]
45 | CC1=NOC(=O)/C1=C\c1ccc(-c2cccc(Cl)c2)o1 |  | inconclusive: 39.8 µM [inhibitor, partial curve]
46 | CCOC(=O)c1sc2ccccc2c1OC(=O)c1ccccc1OC |  | inconclusive: 31.6 µM [inhibitor, single point]
47 | COc1ccc(N2CCN(C(=O)c3ccc4c(c3)CCN4S(=O)(=O)c3ccccc3)CC2)cc1 |  | inconclusive: 22.4 µM [inhibitor, partial curve, poor fit]
48 | O=C(c1ccccc1)N1CCC(O)(c2cccnc2)CC1 |  | inconclusive: 35.5 µM [inhibitor, partial curve]
49 | CCOc1ccc(NC(=O)CS(=O)CC(=O)N(CC(=O)NC(C)(C)C)C2CCCC2)cc1 (centres undefined) |  | inconclusive: 50.1 µM [inhibitor, partial curve, poor fit]
